No constants are given. Whether binding was seen depends on the method and setting. In cells and extracts the contact can be indirect. Some binding calls cover weakened binding; strength is not graded here.
target: LAP-tagged human E2F4 (human) (UniProt Q16254); experiment: co-IP; co-immunoprecipitation of GFP-E2F4 followed by immunoassay in human RPE cells

The chains behind the UniProt entries cited, without tags or fusion partners.
UniProt Q16254: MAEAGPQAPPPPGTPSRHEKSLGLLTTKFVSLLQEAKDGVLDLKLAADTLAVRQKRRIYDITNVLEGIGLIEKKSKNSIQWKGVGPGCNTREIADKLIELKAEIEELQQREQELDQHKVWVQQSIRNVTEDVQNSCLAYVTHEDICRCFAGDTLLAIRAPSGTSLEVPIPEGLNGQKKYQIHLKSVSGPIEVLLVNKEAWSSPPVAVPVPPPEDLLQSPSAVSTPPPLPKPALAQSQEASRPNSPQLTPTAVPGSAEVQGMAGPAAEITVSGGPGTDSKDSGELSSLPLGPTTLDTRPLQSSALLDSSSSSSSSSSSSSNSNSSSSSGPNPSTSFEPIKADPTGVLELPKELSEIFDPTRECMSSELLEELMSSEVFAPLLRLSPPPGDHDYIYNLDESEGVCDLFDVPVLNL
UniProt Q5TKA1: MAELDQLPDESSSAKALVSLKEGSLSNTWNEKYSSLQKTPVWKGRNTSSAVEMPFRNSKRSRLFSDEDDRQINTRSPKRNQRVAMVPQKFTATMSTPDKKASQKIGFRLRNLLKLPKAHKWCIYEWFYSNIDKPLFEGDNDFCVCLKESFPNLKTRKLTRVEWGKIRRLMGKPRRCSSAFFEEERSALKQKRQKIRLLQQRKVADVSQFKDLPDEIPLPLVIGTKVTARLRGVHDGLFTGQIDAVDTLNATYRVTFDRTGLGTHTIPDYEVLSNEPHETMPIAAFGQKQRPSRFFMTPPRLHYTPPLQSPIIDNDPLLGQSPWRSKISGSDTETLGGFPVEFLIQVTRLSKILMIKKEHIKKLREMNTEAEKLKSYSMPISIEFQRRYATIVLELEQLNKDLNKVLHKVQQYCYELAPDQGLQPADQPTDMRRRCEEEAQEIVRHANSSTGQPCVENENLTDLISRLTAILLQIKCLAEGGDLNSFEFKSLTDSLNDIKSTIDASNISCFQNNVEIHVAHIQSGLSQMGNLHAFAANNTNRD
UniProt Q14186: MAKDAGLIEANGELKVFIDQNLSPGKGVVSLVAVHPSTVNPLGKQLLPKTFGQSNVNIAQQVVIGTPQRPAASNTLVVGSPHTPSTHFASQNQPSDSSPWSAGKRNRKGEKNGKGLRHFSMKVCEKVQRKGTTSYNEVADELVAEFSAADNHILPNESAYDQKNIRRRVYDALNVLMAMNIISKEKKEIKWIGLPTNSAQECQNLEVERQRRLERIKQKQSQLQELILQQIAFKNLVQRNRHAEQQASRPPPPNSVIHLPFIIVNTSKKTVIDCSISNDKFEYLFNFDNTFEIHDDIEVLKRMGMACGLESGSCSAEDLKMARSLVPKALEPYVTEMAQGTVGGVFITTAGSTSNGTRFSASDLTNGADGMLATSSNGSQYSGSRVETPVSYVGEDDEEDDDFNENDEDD
UniProt Q6MZP7: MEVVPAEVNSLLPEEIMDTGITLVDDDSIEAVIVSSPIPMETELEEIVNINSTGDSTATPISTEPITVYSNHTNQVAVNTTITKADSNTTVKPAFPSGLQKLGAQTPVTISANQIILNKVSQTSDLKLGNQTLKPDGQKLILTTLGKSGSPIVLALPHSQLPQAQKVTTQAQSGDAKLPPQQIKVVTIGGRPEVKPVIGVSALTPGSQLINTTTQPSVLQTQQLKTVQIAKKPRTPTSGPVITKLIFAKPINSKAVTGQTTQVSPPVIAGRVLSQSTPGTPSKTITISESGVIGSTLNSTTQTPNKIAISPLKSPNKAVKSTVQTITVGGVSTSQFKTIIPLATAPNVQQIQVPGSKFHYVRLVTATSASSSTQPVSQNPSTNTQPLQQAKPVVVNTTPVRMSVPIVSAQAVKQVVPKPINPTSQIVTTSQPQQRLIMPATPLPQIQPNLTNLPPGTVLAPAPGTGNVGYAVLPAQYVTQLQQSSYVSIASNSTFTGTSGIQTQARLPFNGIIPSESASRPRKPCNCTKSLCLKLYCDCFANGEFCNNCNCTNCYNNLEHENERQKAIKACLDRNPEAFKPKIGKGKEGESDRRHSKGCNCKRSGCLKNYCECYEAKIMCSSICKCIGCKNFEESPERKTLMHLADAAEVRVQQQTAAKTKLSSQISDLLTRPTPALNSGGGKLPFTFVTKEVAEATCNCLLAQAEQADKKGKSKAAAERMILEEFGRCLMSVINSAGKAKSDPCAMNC

binding | Substance
binds | LIN9 (human RPE cells) (from UniProt Q5TKA1 1-542)
binds | DP-1 (human RPE cells) (from UniProt Q14186 1-410)
binds | LIN54 (human RPE cells) (from UniProt Q6MZP7 1-749)

— PMC6610666
